Test system: BAE cells
Experiment: Sub-cellular localisation by confocal fluorescence microscopy
Type: cell-based, bovine
Details: 50 μM, 1 h, Mitotracker Red counterstain

N[C@@H](CCC(=O)N[C@@H](CSCC(=O)Nc1ccc([As](=O)(O)O)cc1)C(=O)NCC(=O)O)C(=O)O [GSAA, 4-(N—((S-glutathionyl)acetyl)amino)-benzenearsonic acid, reference compound]
mitochondrial localisation / staining of cells: did not react with ANT or accumulate in mitochondria

O=[As]c1ccc(NC(=O)CSC[C@H](NC(=O)CC[C@H](NC(=O)CCCCCNC(=O)CCCCCNC(=O)CCCC[C@@H]2SC[C@@H]3NC(=O)N[C@@H]32)C(=O)O)C(=O)NCC(=O)O)cc1 (some centres unmarked) [GSAO-B, 4-(N—(S—(N-(6-((6-((biotinoyl)amino)hexanoyl)amino)hexanoyl)-glutathionyl)acetyl)amino) phenylarsenoxide]
mitochondrial localisation / staining of cells: Mitochondrial localisation was also seen

From patent US9353152B2, “Induction of the mitochondrial permeability transition” (NewSouth Innovations Pty Limited, priority 2002, dated 2016)
